From PMC6605799
Residue numbers refer to the chain shown, from its start. In names and notes the source's numbering stands. These are yes or no findings as the source states them, for the method shown. For some assays here: In cells and extracts the contact can be indirect. Tags and fused reporters may be left off the sequences shown. One block for each binder: values may come before it.

Assays:
[1] = target: T1, GFP-RAB6A-S52D (human) (UniProt P20340); test: co-IP; GFP-trap (Chromotek) on extracts of HeLa cells transfected with GFP, GFP-RAB6A or GFP-RAB6A-S52D; lysis buffer 25 mM Tris pH 7.5, 100 mM NaCl, 0.1% NP-40; endogenous ELKS
T1 sequence: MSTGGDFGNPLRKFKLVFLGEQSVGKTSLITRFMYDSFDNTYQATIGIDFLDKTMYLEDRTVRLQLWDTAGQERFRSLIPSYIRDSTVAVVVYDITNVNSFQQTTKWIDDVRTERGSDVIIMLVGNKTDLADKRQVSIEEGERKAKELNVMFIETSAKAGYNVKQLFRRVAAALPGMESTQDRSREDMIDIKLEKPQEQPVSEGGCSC

[2] = target: T2, ELKS full length (LexA fusion) (UniProt Q8IUD2); test: two-hybrid; S. cerevisiae reporter strain L40; LexA fusion of ELKS full length and GAL4 fusions of RAB6A-Q72L or RAB6A-Q72L-S52D; growth on medium lacking histidine (-L-W-H) indicates interaction
T2 sequence: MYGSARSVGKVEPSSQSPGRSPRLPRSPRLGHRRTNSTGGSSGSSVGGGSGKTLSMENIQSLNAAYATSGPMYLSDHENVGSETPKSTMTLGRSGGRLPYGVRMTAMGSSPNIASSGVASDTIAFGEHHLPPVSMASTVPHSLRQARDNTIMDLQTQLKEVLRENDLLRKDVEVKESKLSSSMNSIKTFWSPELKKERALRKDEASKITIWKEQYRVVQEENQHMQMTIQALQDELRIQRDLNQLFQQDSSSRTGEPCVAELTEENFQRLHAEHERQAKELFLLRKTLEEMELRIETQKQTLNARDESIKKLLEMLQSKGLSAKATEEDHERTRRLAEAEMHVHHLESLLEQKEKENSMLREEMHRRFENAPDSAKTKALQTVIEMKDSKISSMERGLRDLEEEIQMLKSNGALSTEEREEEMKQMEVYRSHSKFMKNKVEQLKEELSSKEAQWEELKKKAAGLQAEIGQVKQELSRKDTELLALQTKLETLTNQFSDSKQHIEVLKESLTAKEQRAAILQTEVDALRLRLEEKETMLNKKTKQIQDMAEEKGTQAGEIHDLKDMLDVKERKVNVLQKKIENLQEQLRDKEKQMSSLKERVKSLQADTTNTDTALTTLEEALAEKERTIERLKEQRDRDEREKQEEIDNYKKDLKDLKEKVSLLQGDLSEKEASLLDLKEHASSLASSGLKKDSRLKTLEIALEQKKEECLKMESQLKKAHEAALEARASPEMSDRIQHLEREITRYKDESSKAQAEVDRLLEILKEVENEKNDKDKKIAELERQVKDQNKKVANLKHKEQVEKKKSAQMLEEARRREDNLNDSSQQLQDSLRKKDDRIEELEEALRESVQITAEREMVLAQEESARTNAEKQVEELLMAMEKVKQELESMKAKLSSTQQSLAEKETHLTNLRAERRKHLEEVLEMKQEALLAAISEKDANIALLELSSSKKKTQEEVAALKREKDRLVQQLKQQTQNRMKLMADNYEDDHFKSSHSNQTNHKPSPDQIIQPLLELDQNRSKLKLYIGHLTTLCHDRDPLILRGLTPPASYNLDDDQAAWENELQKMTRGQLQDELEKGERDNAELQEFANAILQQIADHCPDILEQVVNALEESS

binding [1]: no binding
B1: endogenous ELKS (protein, UniProt Q8IUD2 1-1116)
chain: T2 sequence

binding [2]: no binding
B2: RAB6A-Q72L-S52D (GAL4 fusion) (protein, UniProt P20340 1-208)
chain: T1 sequence with Q72L
